Results on five molecules are retold here after article PMC12550018, “High-resolution native electrophoresis in-gel activity assay reveals biological insights of medium-chain fatty acyl-CoA dehydrogenase deficiency” (Scientific Reports, 2025).

Assay [1] addresses Endogenous MCAD of human skin fibroblasts (human (endogenous in skin fibroblasts)) (UniProt P11310). As to the kind of experiment: native gel or EMSA; hrCN-PAGE (5-16% gradient) of mitochondrial enriched fractions of human skin fibroblasts; lanes cut into 60 slices, trypsin digestion, LC-MS/MS migration profiles. A general note: Mobility shift assays separate free from complexed probe on a gel.

Assay [2] has as its target MCAD variant K329E overexpressed in COS-7 cells (human) (UniProt P11310). Kind of assay: native gel or EMSA; hrCN-PAGE at pH 7.0 of lysates / mitochondrial fractions of transfected COS-7 cells; C8-CoA:NBT in-gel activity staining.
The target of assay [3] is MCAD variant Y67H overexpressed in COS-7 cells (human) (UniProt P11310). The description is as above.
For assay [4], the target named is MCAD wild type overexpressed in COS-7 cells (human) (UniProt P11310). Described as above.
Assay [5] deals with MCAD variant R206C overexpressed in COS-7 cells (human) (UniProt P11310). The assay is described as above.

Numbering of substitutions follows the chain as printed. Numbers in names are those of the source. These are yes or no findings as the source states them, for the method shown. Some results given as binding are weak or reduced against the parent protein; the word gives no strength.

B1: Endogenous MCAD of human skin fibroblasts (enzyme, UniProt P11310-1 26-421)
chain: KANRQREPGLGFSFEFTEQQKEFQATARKFAREEIIPVAAEYDKTGEYPVPLIRRAWELGLMNTHIPENCGGLGLGTFDACLISEELAYGCTGVQTAIEGNSLGQMPIIIAGNDQQKKKYLGRMTEEPLMCAYCVTEPGAGSDVAGIKTKAEKKGDEYIINGQKMWITNGGKANWYFLLARSDPDPKAPANKAFTGFIVEADTPGIQIGRKELNMGQRCSDTRGIVFEDVKVPKENVLIGDGAGFKVAMGAFDKTRPVVAAGAVGLAQRALDEATKYALERKTFGKLLVEHQAISFMLAEMAMKVELARMSYQRAAWEVDSGRRNTYYASIAKAFAGDIANQLATDAVQILGGNGFNTEYPVEKLMRDAKIYQIYEGTSQIQRLIVAREHIDKYKN
Turning to B1, the binding result in assay [1] is given as “binds”.

B2: MCAD variant p.K329E, human recombinant (enzyme, UniProt P11310-1 26-421, looked up)
chain: B1 chain with K304E
notes: MCAD, human, encoded by ACADM, clinically relevant variant p.K329E made by site-directed mutagenesis in pMALc2X; masses fit the mature protein (26-421); The residue number counts on the precursor; also called MCAD K329E; not shown: MBP, N-terminal, cleaved
B2: the binding result in assay [2] is recorded as “binds”.

B3: MCAD variant p.Y67H, human recombinant (enzyme, UniProt P11310-1 26-421, looked up)
chain: B1 chain with Y42H
notes: MCAD, human, encoded by ACADM, clinically relevant variant p.Y67H made by site-directed mutagenesis in pMALc2X; masses fit the mature protein (26-421); The residue number counts on the precursor; also called MCAD Y67H; not shown: MBP, N-terminal, cleaved
With B3, the binding result in assay [3] is given as “binds”.

B4: MCAD wild type overexpressed in COS-7 cells (enzyme, UniProt P11310-1 26-421)
chain: B1 chain
For the molecule B4, the binding entry in assay [4] is given as “binds”.

B5: MCAD variant p.R206C, human recombinant (enzyme, UniProt P11310-1 26-421, looked up)
chain: B1 chain with R181C
notes: MCAD, human, encoded by ACADM, clinically relevant variant p.R206C made by site-directed mutagenesis in pMALc2X; masses fit the mature protein (26-421); The residue number counts on the precursor; Native MS: only three FAD per tetramer; also called MCAD R206C; not shown: MBP, N-terminal, cleaved
Consider B5, for which the binding result in assay [5] is “binds”.
